{"source": "the supplement of paper PMC8728848", "binders": {"B1": {"name": "AT3G44510(29) (Arabidopsis thaliana), F4J341 (protein)", "chain": "MEEHLQGRIKLHDGRYLAYKERGVPKDDAKFTIVLVHGFGSSKDMNFNVSQELVNEIGIYFVLYDRAGYGESDPNPKRSLKSEAYDVQELADGLEIGSRFYLIGISMGSYTVWSCLKHIPQRLAGVAMVAPVVNFRWPSIPKSLMPKDYRREVAKWSVWIANYFPGLLQWLVTQNMFSTTSMLEKNPVYFNDQDIEVLKHIKGFPMLTKEKLRERGVFGTLRSDFLVAFGDWDFDPADLPDPSLSGPEKGSSSVHIWQGYEDKVMPFQLQRCLCRKLPWIRYHEVPKGGHLIVHYDGICDAILKSLLLGEDLPMYKPKAVITEPA"}}, "experiment_in_all_cases": "glycan array binding signal (z-score within array); higher = stronger binding", "conditions_in_all_cases": "glycan notation: IUPAC condensed, linker removed", "key": {"[1]": {"biological_target": "Neu5Ac(a2-6)GlcNAc(b1-4)GlcNAc(b1-4)GlcNAc", "how_it_was_run": "(§1)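 Glycan array binding is given as a within-array Z-score, which can be read as non-binding when negative. The arrays, 3228 of them, came from the Consortium for Functional Glycomics database and were retained only where the protein sequence was available. Z-scores were averaged across arrays of the same protein sequence at different concentrations or buffers and across linkers.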"}, "[2]": {"biological_target": "Neu5Ac(a2-8)Neu5Ac", "how_it_was_run": "as §1"}, "[3]": {"biological_target": "Neu5Ac(a2-8)Neu5Ac(a2-3)Gal(b1-3)GalNAc(b1-4)[Neu5Ac(a2-3)]Gal(b1-4)Glc", "how_it_was_run": "as §1"}, "[4]": {"biological_target": "Neu5Ac(a2-8)Neu5Ac(a2-3)Gal(b1-3)GalNAc(b1-4)[Neu5Ac(a2-8)Neu5Ac(a2-3)]Gal(b1-4)Glc", "how_it_was_run": "as §1"}, "[5]": {"biological_target": "Neu5Ac(a2-8)Neu5Ac(a2-3)Gal(b1-4)Glc", "how_it_was_run": "as §1"}, "[6]": {"biological_target": "Neu5Ac(a2-8)Neu5Ac(a2-3)Gal(b1-4)GlcNAc", "how_it_was_run": "as §1"}, "[7]": {"biological_target": "Neu5Ac(a2-8)Neu5Ac(a2-3)[Gal(b1-3)GalNAc(b1-4)]Gal(b1-4)Glc", "how_it_was_run": "as §1"}, "[8]": {"biological_target": "Neu5Ac(a2-8)Neu5Ac(a2-3)[GalNAc(b1-4)]Gal(b1-4)Glc", "how_it_was_run": "as §1"}, "[9]": {"biological_target": "Neu5Ac(a2-8)Neu5Ac(a2-8)Neu5Ac", "how_it_was_run": "as §1"}, "[10]": {"biological_target": "Neu5Ac(a2-8)Neu5Ac(a2-8)Neu5Ac(a2-3)Gal(b1-4)Glc", "how_it_was_run": "as §1"}, "[11]": {"biological_target": "Neu5Ac(a2-8)Neu5Ac(a2-8)Neu5Ac(a2-3)[Gal(b1-3)GalNAc(b1-4)]Gal(b1-4)Glc", "how_it_was_run": "as §1"}, "[12]": {"biological_target": "Neu5Ac(a2-8)Neu5Ac(a2-8)Neu5Ac(a2-3)[GalNAc(b1-4)]Gal(b1-4)Glc", "how_it_was_run": "as §1"}, "[13]": {"biological_target": "Neu5Ac(a2-8)Neu5Ac(a2-8)Neu5Ac(a2-8)Neu5Ac(a2-3)[GalNAc(b1-4)]Gal(b1-4)Glc", "how_it_was_run": "as §1"}, "[14]": {"biological_target": "Neu5Ac(a2-8)Neu5Gc(a2-3)Gal(b1-4)GlcNAc", "how_it_was_run": "as §1"}, "[15]": {"biological_target": "Neu5Ac(b2-6)Gal(b1-4)GlcNAc", "how_it_was_run": "as §1"}, "[16]": {"biological_target": "Neu5Ac(b2-6)GalNAc", "how_it_was_run": "as §1"}, "[17]": {"biological_target": "Neu5Ac9Ac(a2-3)Gal(b1-3)GlcNAc", "how_it_was_run": "as §1"}, "[18]": {"biological_target": "Neu5Ac9Ac(a2-3)Gal(b1-4)GlcNAc", "how_it_was_run": "as §1"}, "[19]": {"biological_target": "Neu5Ac9Ac(a2-6)Gal(b1-4)GlcNAc", "how_it_was_run": "as §1"}, "[20]": {"biological_target": "Neu5Gc(a2-3)Gal(b1-3)GlcNAc", "how_it_was_run": "as §1"}, "[21]": {"biological_target": "Neu5Gc(a2-3)Gal(b1-3)[Fuc(a1-4)]GlcNAc", "how_it_was_run": "as §1"}, "[22]": {"biological_target": "Neu5Gc(a2-3)Gal(b1-4)Glc", "how_it_was_run": "as §1"}, "[23]": {"biological_target": "Neu5Gc(a2-3)Gal(b1-4)GlcNAc", "how_it_was_run": "as §1"}, "[24]": {"biological_target": "Neu5Gc(a2-3)Gal(b1-4)GlcNAc(b1-3)Gal(b1-4)GlcNAc(b1-2)Man(a1-3)[Neu5Gc(a2-3)Gal(b1-4)GlcNAc(b1-3)Gal(b1-4)GlcNAc(b1-2)Man(a1-6)]Man(b1-4)GlcNAc(b1-4)GlcNAc", "how_it_was_run": "as §1"}, "[25]": {"biological_target": "Neu5Gc(a2-3)Gal(b1-4)[Fuc(a1-3)]GlcNAc", "how_it_was_run": "as §1"}, "[26]": {"biological_target": "Neu5Gc(a2-6)Gal(b1-4)GlcNAc", "how_it_was_run": "as §1"}, "[27]": {"biological_target": "Neu5Gc(a2-6)GalNAc", "how_it_was_run": "as §1"}, "[28]": {"biological_target": "Neu5Gc(a2-8)Neu5Ac(a2-3)Gal(b1-4)GlcNAc", "how_it_was_run": "as §1"}, "[29]": {"biological_target": "Neu5Gc(a2-8)Neu5Gc(a2-3)Gal(b1-4)GlcNAc", "how_it_was_run": "as §1"}, "[30]": {"biological_target": "Neu5Gc(a2-8)Neu5Gc(a2-3)Gal(b1-4)GlcNAc(b1-3)Gal(b1-4)GlcNAc", "how_it_was_run": "as §1"}, "[31]": {"biological_target": "Neu5Gc(a2-8)Neu5Gc(a2-6)Gal(b1-4)GlcNAc", "how_it_was_run": "as §1"}, "[32]": {"biological_target": "Neu5Gc(b2-6)Gal(b1-4)GlcNAc", "how_it_was_run": "as §1"}}, "note": "The list shows a part of the results.", "data": [{"binder": "B1", "values": [{"measurement": "glycan array binding signal (z-score)", "setting": "[1]", "result": -0.287}, {"measurement": "glycan array binding signal (z-score)", "setting": "[2]", "result": -0.587}, {"measurement": "glycan array binding signal (z-score)", "setting": "[3]", "result": -0.267}, {"measurement": "glycan array binding signal (z-score)", "setting": "[4]", "result": -0.159}, {"measurement": "glycan array binding signal (z-score)", "setting": "[5]", "result": -0.403}, {"measurement": "glycan array binding signal (z-score)", "setting": "[6]", "result": -0.423}, {"measurement": "glycan array binding signal (z-score)", "setting": "[7]", "result": -0.477}, {"measurement": "glycan array binding signal (z-score)", "setting": "[8]", "result": 0.865}, {"measurement": "glycan array binding signal (z-score)", "setting": "[9]", "result": -0.439}, {"measurement": "glycan array binding signal (z-score)", "setting": "[10]", "result": 0.131}, {"measurement": "glycan array binding signal (z-score)", "setting": "[11]", "result": -0.371}, {"measurement": "glycan array binding signal (z-score)", "setting": "[12]", "result": 0.222}, {"measurement": "glycan array binding signal (z-score)", "setting": "[13]", "result": -0.387}, {"measurement": "glycan array binding signal (z-score)", "setting": "[14]", "result": -0.685}, {"measurement": "glycan array binding signal (z-score)", "setting": "[15]", "result": -0.415}, {"measurement": "glycan array binding signal (z-score)", "setting": "[16]", "result": -0.507}, {"measurement": "glycan array binding signal (z-score)", "setting": "[17]", "result": 0.035}, {"measurement": "glycan array binding signal (z-score)", "setting": "[18]", "result": -0.419}, {"measurement": "glycan array binding signal (z-score)", "setting": "[19]", "result": -0.566}, {"measurement": "glycan array binding signal (z-score)", "setting": "[20]", "result": -0.612}, {"measurement": "glycan array binding signal (z-score)", "setting": "[21]", "result": -0.708}, {"measurement": "glycan array binding signal (z-score)", "setting": "[22]", "result": -0.378}, {"measurement": "glycan array binding signal (z-score)", "setting": "[23]", "result": -0.399}, {"measurement": "glycan array binding signal (z-score)", "setting": "[24]", "result": -0.365}, {"measurement": "glycan array binding signal (z-score)", "setting": "[25]", "result": -0.402}, {"measurement": "glycan array binding signal (z-score)", "setting": "[26]", "result": 0}, {"measurement": "glycan array binding signal (z-score)", "setting": "[27]", "result": -0.783}, {"measurement": "glycan array binding signal (z-score)", "setting": "[28]", "result": -0.274}, {"measurement": "glycan array binding signal (z-score)", "setting": "[29]", "result": -0.451}, {"measurement": "glycan array binding signal (z-score)", "setting": "[30]", "result": 0.206}, {"measurement": "glycan array binding signal (z-score)", "setting": "[31]", "result": 1.09}, {"measurement": "glycan array binding signal (z-score)", "setting": "[32]", "result": -0.149}]}]}
